Measured values published in doi:10.1101/2025.09.26.678488.
No constants are given. Whether binding was seen depends on the method and setting. Binding seen in cells or lysates may run through a third protein. Some binding calls cover weakened binding; strength is not graded here. Where a sequence is shown, tags or fusion partners need not be part of it.

T1: FLAG-PDZ_(DVL2) V334E (human) (UniProt O14641)
T1 sequence: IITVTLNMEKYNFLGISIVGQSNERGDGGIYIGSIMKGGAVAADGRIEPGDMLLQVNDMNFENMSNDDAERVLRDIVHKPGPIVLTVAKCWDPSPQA

T2: FLAG-PDZ_(DVL2) (minimal PDZ domain of DVL2, amino acids 265-361) (human) (UniProt O14641)
T2 sequence: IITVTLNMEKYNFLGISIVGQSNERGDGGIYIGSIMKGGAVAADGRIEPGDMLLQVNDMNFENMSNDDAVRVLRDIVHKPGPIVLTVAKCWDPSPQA


What was measured:
[1] = target: T1, FLAG-PDZ_(DVL2) V334E (human); assay: co-IP
[2] = target: T2, FLAG-PDZ_(DVL2) (minimal PDZ domain of DVL2, amino acids 265-361) (human); assay: co-IP

binding [1] | binding [2] | Binder
no binding | binds | GFP-CTmin_(Daple) (minimal C-terminal polypeptide of Daple, amino acids 1925-2028) (domain or fragment, UniProt Q9P219 1925-2028) QLLHFSPAAAPAARTKPKAPPRSGEVATITPVRAGLSLSEGDGVPGQGCSEGLPAKSPGRSPDLAPHLGRALEDCSRGSVSKSSPASPEPGGDPQTVWYEYGCV
no binding | binds | GFP-CT_(Daple) (C-terminal tail of Daple, amino acids 1378-2028) (domain or fragment, UniProt Q9P219 1378-2028) RRHKEKLEEKIMDQYKFYDPPPKKKNHWIGAKALVKLIKPKKEGSRERLKSTVDSPPWQLESSDPASPAASQPLRSQAENPDTPALGSNCAEERDAHNGSVGKGPGDLKPKRGSPHRGSLDRTDASTDLAMRSWPSELGSRTCSTSATTTAPSNSTPIARHPGRTKGYNSDDNLCEPSLEFEVPNHRQYVSRPSSLESSRNTSSNSSPLNLKGSSEQLHGRSESFSSEDLIPSRDLATLPREASTPGRNALGRHEYPLPRNGPLPQEGAQKRGTAPPYVGVRPCSASPSSEMVTLEEFLEESNRSSPTHDTPSCRDDLLSDYFRKASDPPAIGGQPGPPAKKEGAKMPTNFVAPTVKMAAPTSEGRPLKPGQYVKPNFRLTEAEAPPSVAPRQAQPPQSLSLGRPRQAPVPPASHAPASRSASLSRAFSLASADLLRASGPEACKQESPQKLGAPEALGGRETGSHTLQSPAPPSSHSLARERTPLVGKAGSSCQGPGPRSRPLDTRRFSLAPPKEERLAPLHQSATAPAIATAGAGAAAAGSGSNSQLLHFSPAAAPAARTKPKAPPRSGEVATITPVRAGLSLSEGDGVPGQGCSEGLPAKSPGRSPDLAPHLGRALEDCSRGSVSKSSPASPEPGGDPQTVWYEYGCV
 | no binding | GFP-CTΔPBM_(Daple) (minimal Daple CT that lacked its PBM) (domain or fragment, UniProt Q9P219 1925-2020) QLLHFSPAAAPAARTKPKAPPRSGEVATITPVRAGLSLSEGDGVPGQGCSEGLPAKSPGRSPDLAPHLGRALEDCSRGSVSKSSPASPEPGGDPQT
